In publication PMC7606486, “CFAP45 deficiency causes situs abnormalities and asthenospermia by disrupting an axonemal adenine nucleotide homeostasis module” (Nature Communications, 2020):
These are yes or no findings as the source states them, for the method shown. In cells and extracts the contact can be indirect. For part of these data: A result given as binding can be weak or reduced; the word gives no strength.

B1: recombinant AK8 (enzyme, UniProt Q96MA6-1 1-479)
chain: MDATIAPHRIPPEMPQYGEENHIFELMQNMLEQLLIHQPEDPIPFMIQHLHRDNDNVPRIVILGPPASGKTTIAMWLCKHLNSSLLTLENLILNEFSYTATEARRLYLQRKTVPSALLVQLIQERLAEEDCIKQGWILDGIPETREQALRIQTLGITPRHVIVLSAPDTVLIERNLGKRIDPQTGEIYHTTFDWPPESEIQNRLMVPEDISELETAQKLLEYHRNIVRVIPSYPKILKVISADQPCVDVFYQALTYVQSNHRTNAPFTPRVLLLGPVGSGKSLQAALLAQKYRLVNVCCGQLLKEAVADRTTFGELIQPFFEKEMAVPDSLLMKVLSQRLDQQDCIQKGWVLHGVPRDLDQAHLLNRLGYNPNRVFFLNVPFDSIMERLTLRRIDPVTGERYHLMYKPPPTMEIQARLLQNPKDAEEQVKLKMDLFYRNSADLEQLYGSAITLNGDQDPYTVFEYIESGIINPLPKKIP
B2: recombinant DNAI1 (protein, UniProt Q9UI46 1-699)
chain: MIPASAKAPHKQPHKQSISIGRGTRKRDEDSGTEVGEGTDEWAQSKATVRPPDQLELTDAELKEEFTRILTANNPHAPQNIVRYSFKEGTYKPIGFVNQLAVHYTQVGNLIPKDSDEGRRQHYRDELVAGSQESVKVISETGNLEEDEEPKELETEPGSQTDVPAAGAAEKVTEEELMTPKQPKERKLTNQFNFSERASQTYNNPVRDRECQTEPPPRTNFSATANQWEIYDAYVEELEKQEKTKEKEKAKTPVAKKSGKMAMRKLTSMESQTDDLIKLSQAAKIMERMVNQNTYDDIAQDFKYYDDAADEYRDQVGTLLPLWKFQNDKAKRLSVTALCWNPKYRDLFAVGYGSYDFMKQSRGMLLLYSLKNPSFPEYMFSSNSGVMCLDIHVDHPYLVAVGHYDGNVAIYNLKKPHSQPSFCSSAKSGKHSDPVWQVKWQKDDMDQNLNFFSVSSDGRIVSWTLVKRKLVHIDVIKLKVEGSTTEVPEGLQLHPVGCGTAFDFHKEIDYMFLVGTEEGKIYKCSKSYSSQFLDTYDAHNMSVDTVSWNPYHTKVFMSCSSDWTVKIWDHTIKTPMFIYDLNSAVGDVAWAPYSSTVFAAVTTDGKAHIFDLAINKYEAICNQPVAAKKNRLTHVQFNLIHPIIIVGDDRGHIISLKLSPNLRKMPKEKKGQEVQKGPAVEIAKLDKLLNLVREVKIKT

Experiments:
[1] = biological target: recombinant respiratory-specific, truncated (p25) CFAP45 isoform (mouse); test: co-IP; recombinant, epitope-tagged proteins co-expressed in HEK293 cells; immunoprecipitation of the bait; details only in supplementary figures
[2] = biological target: recombinant, epitope-tagged CFAP52 (552 amino acid isoform) (human); test: as above

Row | Binder | binding [1] | binding [2]
1 | B1 | no binding | binds
2 | B2 | – | binds
